# Laboratory results as given in PubChem BioAssay AID504775 (Broad Institute, 2011).
# Screen size: about 320,000 compounds; about 310 (0.097%) were called active. The inconclusive results got no clear call from the source; some entries with a clear call stand among them for comparison.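 The calls were made as follows: active = mean replicate activation of at least 60% and every replicate at or above 60%; inconclusive = mean or all-replicate condition met, but not both; inactive = mean below 60% and not all replicates reaching 60%.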
# Assay: enhancers of HDL lipid transfer via mSR-BI – ldlA[mSR-BI] CHO cells, DiI fluorescence, primary screen (AID 504775);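 also: 0% = median plate neutral-control signal and 100% = twice that signal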
# Settings: DiI-HDL uptake fluorescence, 3 h, at 12.5 µM, stronger effect = higher value, 100 = double the neutral-control signal
# Method in brief: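 Assay system: CHO ldlA[mSR-BI] cells, LDL receptor-null, SR-BI overexpressing; medium: Ham's F12 with 0.5% BSA, HEPES 25 mM, pH 7.4; also added: DiI-HDL 10 µg/mL; timing: 3 h uptake period with compound, 37 °C; signal: DiI fluorescence, bottom read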
row,Compound,activation
1,Cc1onc(C(=O)N2CCC(Cc3ccccc3)CC2)c1[N+](=O)[O-],inconclusive: 230%
2,Nc1c(-c2ccccn2)cnn1-c1nc(-c2ccc(F)cc2)cs1,inactive: -66.5%
3,COC(=O)c1ccc(NC(=O)c2cccc(NC(=O)c3ccco3)c2)cc1,active: 749%
4,CN(C)c1ccc(/C=N/n2c(-c3ccccc3Br)n[nH]c2=S)cc1,inconclusive: 151%
5,CSc1c(CC(=O)NCCO)n(C)c2ccccc12,inconclusive: 62%
6,CCn1c(=O)cc(SCC(=O)NCc2ccc(C)cc2)c2ccccc21,inconclusive: 109%
7,CNC(=O)c1sc(SC)cc1-c1ccc(Cl)cc1,inactive: -51.4%
8,CCCOc1cccc(C(=O)N2CCN(C(=O)C3CCCO3)CC2)c1 (configuration not stated),inconclusive: 280%
9,O=C(Cc1ccc(Cl)cc1)N1CCc2ccccc2C1,active: 449%
10,COc1ccccc1NS(=O)(=O)c1cccc(C(=O)N/N=C(/C)c2ccc(-n3ccnc3)cc2)c1,inconclusive: 78%
11,COc1ccc(C(=O)Nc2c(O)ccc3ccccc23)cc1,inconclusive: 237%
12,O=C(c1ccco1)N1CCN(C(=O)C2CC2)CC1,active: 67.1%
13,O=C(Nc1ccc(OC(=O)c2ccccc2)c(-c2nc3ccccc3s2)c1)c1ccccc1,inactive: -32.5%
14,CC(OC(=O)c1cccc(NS(C)(=O)=O)c1)C(=O)Nc1ccc(N2CCOCC2)cc1 (configuration not stated),inactive: -78.4%
15,N/C(CC(=O)Nc1cccc(C(F)(F)F)c1)=N/O,active: 88.6%
16,O=C(Nc1cccc(-c2nc3ncccc3o2)c1)c1ccco1,inconclusive: 105%
17,O=C(N/N=C/C=C/c1ccccc1)c1cnccn1,active: 240%
18,Cc1cc(C)n(CC(=O)NC2CCCN(Cc3ccc(Cl)cc3)C2)n1 (configuration not stated),inconclusive: 231%
19,O=C(Cn1c(=O)oc2cc(S(=O)(=O)N3CCCC3)ccc21)Nc1ccccc1Br,inactive: -13.9%
20,O=C(CCCOc1ccccc1)N1CCc2ccccc2C1,inconclusive: 106%
21,COc1cc(Cl)c(CC(=O)c2c[nH]c3ccccc23)cc1OC,inconclusive: 204%
22,Cc1ccc(Nc2nc3ccccc3n3nnnc23)cc1,inactive: -12.4%
23,N#Cc1c(NC(=O)CCCC(=O)O)sc2c1CCCCC2,inconclusive: 62.3%

row,Compound,activation
1,O=C(NCc1ccccn1)C1CC(=O)N(C2CCCC2)C1 (configuration not stated),inconclusive: 85.8%
2,CC(C)C[C@@H](CN1CCCC1CN1C(=S)NC[C@@H]1Cc1ccc(O)cc1)N1C[C@H](Cc2ccc(O)cc2)N(CC2CCCCCC2)C1=S (some centres not stated),inconclusive: 61%
3,O=C(NC(=S)NNC(=O)c1ccco1)c1ccc(F)cc1,inconclusive: 68.5%
4,CCCCc1nnc(NC(=O)c2ccccc2OCc2c(C)noc2C)s1,inconclusive: 200%
5,COc1cc2cc(CCCOC(=O)CCCC(=O)O)oc(=O)c2cc1OC,inconclusive: 62%
6,CSc1cccc(NC(=S)NCCCN2CCN(c3ccc(F)cc3)CC2)c1,active: 201%
7,CCN(CC)CCCN=Cc1c(O)n(-c2ccc(C)cc2)c(=O)c2ccccc12,inconclusive: 162%
8,COc1ccc(C)cc1S(=O)(=O)N(C)CC(=O)N1CCC(C)CC1,inactive: -10%
9,CN(C)c1nc(N(C)C)c2cnn(C)c2n1,inconclusive: 75.2%
10,CN1C(=O)c2ccccc2C(C(=O)O)C1c1cn(C)c2ccccc12 (configuration not stated),inactive: 24.9%
11,O=S(=O)(Nc1ccc(N2CCOCC2)cc1)c1ccc(Cl)s1,inconclusive: 100%
12,CCC(C)/C(C)=N/NC(=O)C1COc2ccccc2O1 (configuration not stated),inconclusive: 221%
13,O=C(Nc1ccc(Br)cn1)c1ccc([N+](=O)[O-])o1,inconclusive: 161%
14,Cc1[nH]c2ccc(C(C)C)cc2c1CC(=O)O,inconclusive: 202%
15,O=C(CO/N=C1\CCCc2nonc21)Nc1ccc(Br)cc1,inactive: 7.57%
16,CCOCC(=O)Nc1ccc2c(c1)OCCO2,inconclusive: 238%
17,CCOC(=O)CSc1ncc(OC)c(=O)[nH]1,inconclusive: 202%
18,Cc1ccc(C(=O)N2CCN(C)CC2)cc1[N+](=O)[O-],inconclusive: 485%
19,O=C(O)CCCC(=O)NCc1c(Cl)cccc1Sc1ccc(Cl)cc1,inactive: -0.993%
20,Cc1nnc(NC(=O)CCC(=O)N2CCN(S(=O)(=O)c3cc([N+](=O)[O-])ccc3C)CC2)s1,inconclusive: 228%
21,CC1CC[C@@]2(OC1)O[C@H]1CC3[C@@H]4C[C@@H](O)[C@@]5(O)C[C@@H](O)[C@H](O)C[C@]5(C)[C@H]4CC[C@]3(C)[C@H]1[C@@H]2C (some centres not stated),active: 68.8%
22,CCOC(=O)c1c(C)[nH]c(C(=O)COC(=O)c2ccc(N3CCCC3=O)cc2)c1C,active: 62.8%
23,O=C(N=Nc1c(O)[nH]c2ccccc12)c1cc(-c2cccs2)[nH]n1,inconclusive: 159%

row,Compound,activation
1,CC(C)Oc1ccc(/C=C/C(=O)NCC2COc3ccccc3O2)cc1 (configuration not stated),inconclusive: 275%
2,COc1ccccc1/C=C/C(=O)OCCCN(C)C,inactive: 26.7%
3,Cc1c(NC(=O)c2cnn3c(C(F)(F)F)cc(-c4ccco4)nc23)c(=O)n(-c2ccccc2)n1C,inactive: -15.4%
4,CC(C)(C)OC(=O)N1CCN(CCNC(=O)c2ccccc2)CC1,inconclusive: 126%
5,COC(=O)C1=C(N)OC2=C(C(=O)CC(C)(C)C2)C1c1cccs1 (configuration not stated),active: 822%
6,COc1cc(C(=O)Nc2ccccc2N2CCOCC2)ccc1OCC(=O)N1CCOCC1,inactive: -38.1%
7,Cc1ccccc1C(=O)Nc1ccc(C(=O)O)cc1NC(=O)c1ccccc1C,inconclusive: 61.8%
8,CCOc1ccccc1CN1CCCC(C(=O)Nc2cccc(-n3cccn3)c2)C1 (configuration not stated),inactive: -7.46%
9,CC1=C(C#N)C(=O)N(C)C(C)(C)C1,active: 140%
10,COC(=O)c1sc2nc3c(cc2c1N)COC(C)(C)C3,active: 170%
11,CC1CCN(c2ccc([N+](=O)[O-])cn2)CC1,inconclusive: 101%
12,CSc1ccc(C(=S)N2CCN(C)CC2)cc1,inconclusive: 62.2%
13,COc1cccc(NC(=O)Cn2c(=O)n(CCCC(=O)NCc3ccco3)c(=O)c3ccccc32)c1,inconclusive: 118%
14,N#CC(C#N)=CN=c1ccn(Cc2ccc(Cl)cc2Cl)cc1,inconclusive: 131%
15,CCN(CC)CCCN(C(=O)c1ccccc1C)c1nc(-c2ccc(OC)cc2)cs1,inconclusive: 169%
16,C=CCCCOc1ccc(C(=O)O)cc1,inactive: 15%
17,COC(=O)CSc1nnc(COc2cccc3ccccc23)o1,inconclusive: 159%
18,C[C@H]1c2cccc(O)c2C(O)=C2C(=O)C3(O)C(O)=C(C(N)=O)C(=O)[C@@H](N(C)C)[C@@H]3[C@@H](O)[C@@H]21 (some centres not stated),inactive: 26.3%
19,COc1ccccc1C(=O)NC(=O)CSc1nc2nc(C)cc(C)n2n1,inconclusive: 155%
20,Cc1ccc(C)c(NC(=S)N2CCC(NC(=O)c3ccccc3)CC2)c1,inactive: 1.79%
21,CC(=O)c1ccc(NC(=O)COC(=O)CCC(=O)c2cccs2)cc1,active: 270%
22,CC(C)(C)N=Cc1cc(-c2ccccc2)sc1O,inconclusive: 153%
23,CCCNC(=O)C(CC)NC(=O)c1ccc(C#N)cc1 (configuration not stated),active: 61.7%

row,Compound,activation
1,O=C(c1cc2ccccn2n1)N1CCN(Cc2ccccc2)CC1,inconclusive: 100%
2,CCOC(=O)c1cnc2c(OC)cccc2c1Nc1ccc2c(c1)OCCO2,inactive: 0.0285%
3,COc1ccccc1/C=C/c1nc2ccccc2c(=O)o1,inactive: 32.8%
4,COc1cccc(C(C(=O)NC2CCCC2)N(C(=O)c2ccco2)c2ccc(C(C)=O)cc2)c1OC (configuration not stated),active: 234%
5,CCOc1ccc2[nH]c(=O)c(CN(Cc3ccc(F)cc3)C(=O)N3CCCC3)cc2c1,inconclusive: 71.4%
6,CC(C)c1nc2oc3c(NCCO)ncnc3c2c2c1COC(C)(C)C2,active: 239%
7,O=C(N/N=C/c1cccc(OCc2ccccc2)c1)c1cccs1,inconclusive: 242%
8,O=C(O)CCN1C(=O)/C(=C\c2ccncc2)SC1=S,inconclusive: 110%
9,O=C(COC(=O)CNC(=O)c1ccc(Cl)cc1Cl)NCc1ccco1,active: 89%
10,CC1CCN(c2oc(Cc3cccc4ccccc34)nc2C#N)CC1,inconclusive: 163%
11,O=C(CCC1CCCN(C(=O)c2ccsc2)C1)NCc1ccc(F)c(F)c1 (configuration not stated),inconclusive: 150%
12,CC[C@@H]1C/C=C\Cc2ccccc2[C@@H](C(=O)C[C@H](O)CC(C)=O)OC1=O,inactive: -21.3%
13,OCc1ccnc2c(O)cccc12,inactive: 6.71%
14,CCN1CC2=C(OC(N)=C(C#N)C2c2cccs2)/C(=C\c2cccs2)C1 (configuration not stated),inconclusive: 62.8%
15,CSc1ccc(C(C(C(=O)c2cccs2)N2CCOCC2)N2CCOCC2)cc1 (configuration not stated),active: 65.3%
16,CCOc1ccccc1NC(=O)C1CCCN1C(=O)c1cccs1 (configuration not stated),active: 86.9%
17,COc1ccc(NC(=O)C(NC(=O)Cc2cccs2)c2ccc(C)cc2)cc1 (configuration not stated),active: 64.5%
18,COC(=O)C(NC(C)=O)(Nc1nc2ccc(C)cc2s1)C(F)(F)F (configuration not stated),inconclusive: 92.1%
19,CCOC(=O)Nc1ccc(NC(=O)c2ccccc2F)cc1,inactive: -21.9%
20,O=C(C[C@H]1C[C@H](C(=O)N2CCOCC2)[C@@]2(CCC3CCCC3)c3[nH]c4ccc(Cl)cc4c3CCN2C1=O)NCc1ccco1,active: 82.2%
21,O=C(CN1C(=O)C2CC=CCC2C1=O)NC1CCCc2ccccc21 (configuration not stated),inconclusive: 134%
22,O=C(NCCOc1ccccc1)c1cc([N+](=O)[O-])ccc1N1CCOCC1,inconclusive: 118%
23,COc1ccc(NC(C)=[N+](C)CCNS(=O)(=O)c2ccc(Cl)cc2)cc1Cl,inactive: 5.65%

# Single entries from the list.
# O=C(O)CCCC(=O)NCc1c(Cl)cccc1Sc1ccc(Cl)cc1 | activation: inactive: -0.993%
# Cc1ccc(C(=O)N2CCN(C)CC2)cc1[N+](=O)[O-] | activation: inconclusive: 485%
# O=C(CO/N=C1\CCCc2nonc21)Nc1ccc(Br)cc1 | activation: inactive: 7.57%
# CCOC(=O)Nc1ccc(NC(=O)c2ccccc2F)cc1 | activation: inactive: -21.9%
# CCOc1ccccc1CN1CCCC(C(=O)Nc2cccc(-n3cccn3)c2)C1 (configuration not stated) | activation: inactive: -7.46%
# Cc1ccc(C)c(NC(=S)N2CCC(NC(=O)c3ccccc3)CC2)c1 | activation: inactive: 1.79%
# COc1cc2cc(CCCOC(=O)CCCC(=O)O)oc(=O)c2cc1OC | activation: inconclusive: 62%
